Results from US20070264674A1, “Cytochrome P450 Induction Assay” (priority 2004, published 2007).
At least one structure is not confirmed: it was looked up by name or label, or the drawing left a doubt.

Biological target: T1, hCAR (Homo sapiens, UniProt Q14994)
T1 sequence (Q14994 1-348 isoform Q14994-2): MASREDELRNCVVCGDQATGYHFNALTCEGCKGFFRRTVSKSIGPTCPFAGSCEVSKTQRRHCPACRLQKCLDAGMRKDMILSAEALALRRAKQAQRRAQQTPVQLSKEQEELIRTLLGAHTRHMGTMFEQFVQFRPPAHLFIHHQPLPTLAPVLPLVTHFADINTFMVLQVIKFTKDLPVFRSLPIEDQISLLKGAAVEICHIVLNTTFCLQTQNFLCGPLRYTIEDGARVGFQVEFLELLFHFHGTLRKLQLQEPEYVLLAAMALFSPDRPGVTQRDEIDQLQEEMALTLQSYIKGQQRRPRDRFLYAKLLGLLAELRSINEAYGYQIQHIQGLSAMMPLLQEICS
Test: Primary rat hepatocytes cotransfected with clone 102-SEAP and hCAR
Format: cell-based
Design: expressed in transfected cells; host or cells: primary rat hepatocytes (transient co-transfection, Effectene)
Details: 10 μM Rifampicin, 1 μM CITCO, 1 mM Phenobarbital, 48 h
Experimental: After four hours, cell culture medium was changed with 1 mL Williams E medium containing Pen/Strep, glutamine and ITS+Premix and the cells were incubated overnight under normal growth condition.
This was followed by adding 3.2 μL Enhancer and mixing by vortexing for 1 second. […] The cotransfections were followed by adding 3.2 μL Enhancer and mixing by vortexing for 1 second. The transfections/cotransfections were incubated at room temperature for 5 minutes. Then, the mixtures were centrifuged for a few seconds to remove drops from the top of the tube. Next, to each of the mixtures, five μL of Effectene Transfection Reagent was added and the mixtures mixed by vortexing for 10 seconds. The mixtures were then incubated for ten minutes at room temperature to allow transfection complex formation.
Meanwhile, the growth medium for each of the wells of the 24-well plate containing the cells was removed from the wells and the cells in the wells washed once with 1 mL of growth medium. Then, 350 μL of fresh growth medium was added to each of the wells and 350 μL of growth medium was added to each of the tubes of transfection complexes, which were then mixed and immediately added drop-wise onto the cells in the well. The plates were gently swirled to ensure uniform distribution of the transfection complexes over the cells. […]

Question: Which “induction of clone 102-SEAP expression via hCAR” value does the source give for `CCC1(c2ccccc2)C(=O)NC(=O)NC1=O` [Phenobarbital] here?
Answer: The value was “about 4 fold”.
